Measurements reported in patent US20040072170A1.

What was measured:
Rad6 (U38785) (human) = assay: yeast two-hybrid screen, 66214pep as bait against a human heart cDNA library
Ubc9 (P50550) (human) = assay: as above

B1: 66214pep (protein)
chain: MYMSKQPVSNVRAIQANINIPMGAFRPGAGQPPRRKECTPEVEEGVPPTSDEEKKPIPGAKKLPGPAVNLSEIQNIKSELKYVPKAEQ
With B1 the binding (Rad6 (U38785) (human)) was “binds” and the binding (Ubc9 (P50550) (human)) was “binds”.

Results are given in words; binding and its absence hold for the method and conditions named. Binding can be weak; no strength is given.
